From article PMC10801253
No constants are given. Whether binding was seen depends on the method and setting. In cells and extracts the contact can be indirect. Some results given as binding are weak or reduced against the parent protein; the word gives no strength.

Sequences of proteins named here, by UniProt entry; tags and fusion partners are left off.
UniProt P40337: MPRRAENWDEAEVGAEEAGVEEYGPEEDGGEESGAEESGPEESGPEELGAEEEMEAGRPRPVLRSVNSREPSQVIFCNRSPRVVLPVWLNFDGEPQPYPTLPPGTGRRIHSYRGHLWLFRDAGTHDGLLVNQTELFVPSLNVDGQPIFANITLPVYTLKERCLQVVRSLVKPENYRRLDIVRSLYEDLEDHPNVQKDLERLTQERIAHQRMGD

Target: T1, FOXA2 (human (endogenous in ACHN and Caki-1)) (UniProt Q9Y261)
T1 sequence: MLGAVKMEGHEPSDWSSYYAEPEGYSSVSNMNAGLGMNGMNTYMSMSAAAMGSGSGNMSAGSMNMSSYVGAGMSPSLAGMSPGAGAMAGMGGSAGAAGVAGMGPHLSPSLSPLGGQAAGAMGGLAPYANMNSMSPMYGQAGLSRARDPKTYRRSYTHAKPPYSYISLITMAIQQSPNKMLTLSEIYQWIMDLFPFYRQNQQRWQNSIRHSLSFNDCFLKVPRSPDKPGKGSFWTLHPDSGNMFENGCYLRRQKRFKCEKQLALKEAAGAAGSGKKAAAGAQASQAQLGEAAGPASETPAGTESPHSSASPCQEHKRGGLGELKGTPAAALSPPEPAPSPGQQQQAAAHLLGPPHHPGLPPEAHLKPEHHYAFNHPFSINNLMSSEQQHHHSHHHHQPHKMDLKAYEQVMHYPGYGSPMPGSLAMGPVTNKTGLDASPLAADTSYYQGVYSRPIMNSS
Assay: co-IP; endogenous proteins in ACHN and Caki-1 lysates; anti-FOXA2 antibody or rabbit IgG for 4 h, then protein A/G beads for 2 h; washed three times with NETN (250 mM NaCl, 5 mM EDTA, 50 mM Tris-HCl, 0.5% NP-40); immunoblot

binding: binds
Substance: VHL (von Hippel-Lindau) (from UniProt P40337 1-213)
